According to paper doi:10.1101/2021.02.20.432055:
These are yes or no findings as the source states them, for the method shown. Binding seen in cells or lysates may run through a third protein. Some entries that bind do so weakly or less than the wild type. Sequences can lack the tags named with a protein.

Molecular target: T1, CTCF (human (endogenous in HCT116)) (UniProt P49711)
T1 sequence: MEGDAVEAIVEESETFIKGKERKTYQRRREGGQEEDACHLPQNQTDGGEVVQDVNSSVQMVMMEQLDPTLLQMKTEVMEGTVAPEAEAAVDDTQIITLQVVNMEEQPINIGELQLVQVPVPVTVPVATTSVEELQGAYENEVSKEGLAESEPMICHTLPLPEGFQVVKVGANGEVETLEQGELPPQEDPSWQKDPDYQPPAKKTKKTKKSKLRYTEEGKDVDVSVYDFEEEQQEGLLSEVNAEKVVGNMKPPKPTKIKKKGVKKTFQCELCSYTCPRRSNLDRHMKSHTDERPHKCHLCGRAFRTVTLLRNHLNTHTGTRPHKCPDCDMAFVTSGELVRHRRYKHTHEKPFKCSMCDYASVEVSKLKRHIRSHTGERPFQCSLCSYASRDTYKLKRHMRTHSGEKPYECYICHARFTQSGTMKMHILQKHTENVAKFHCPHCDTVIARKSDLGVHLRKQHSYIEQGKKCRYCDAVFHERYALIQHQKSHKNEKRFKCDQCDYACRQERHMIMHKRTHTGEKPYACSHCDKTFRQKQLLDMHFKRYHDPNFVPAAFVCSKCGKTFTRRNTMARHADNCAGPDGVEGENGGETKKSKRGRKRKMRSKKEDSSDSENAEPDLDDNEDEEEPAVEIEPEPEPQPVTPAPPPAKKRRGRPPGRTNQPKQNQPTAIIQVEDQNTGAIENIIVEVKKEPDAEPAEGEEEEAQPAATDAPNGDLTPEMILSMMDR
Assay: co-IP

binding: binds
B1: SA2 (Stromalin Antigen 2, STAG2) (protein, UniProt Q8N3U4 1-1231)
chain: MIAAPEIPTDFNLLQESETHFSSDTDFEDIEGKNQKQGKGKTCKKGKKGPAEKGKGGNGGGKPPSGPNRMNGHHQQNGVENMMLFEVVKMGKSAMQSVVDDWIESYKHDRDIALLDLINFFIQCSGCKGVVTAEMFRHMQNSEIIRKMTEEFDEDSGDYPLTMAGPQWKKFKSSFCEFIGVLVRQCQYSIIYDEYMMDTVISLLTGLSDSQVRAFRHTSTLAAMKLMTALVNVALNLSINMDNTQRQYEAERNKMIGKRANERLELLLQKRKELQENQDEIENMMNAIFKGVFVHRYRDAIAEIRAICIEEIGIWMKMYSDAFLNDSYLKYVGWTMHDKQGEVRLKCLTALQGLYYNKELNSKLELFTSRFKDRIVSMTLDKEYDVAVQAIKLLTLVLQSSEEVLTAEDCENVYHLVYSAHRPVAVAAGEFLYKKLFSRRDPEEDGMMKRRGRQGPNANLVKTLVFFFLESELHEHAAYLVDSMWDCATELLKDWECMNSLLLEEPLSGEEALTDRQESALIEIMLCTIRQAAECHPPVGRGTGKRVLTAKEKKTQLDDRTKITELFAVALPQLLAKYSVDAEKVTNLLQLPQYFDLEIYTTGRLEKHLDALLRQIRNIVEKHTDTDVLEACSKTYHALCNEEFTIFNRVDISRSQLIDELADKFNRLLEDFLQEGEEPDEDDAYQVLSTLKRITAFHNAHDLSKWDLFACNYKLLKTGIENGDMPEQIVIHALQCTHYVILWQLAKITESSSTKEDLLRLKKQMRVFCQICQHYLTNVNTTVKEQAFTILCDILMIFSHQIMSGGRDMLEPLVYTPDSSLQSELLSFILDHVFIEQDDDNNSADGQQEDEASKIEALHKRRNLLAAFCKLIVYTVVEMNTAADIFKQYMKYYNDYGDIIKETMSKTRQIDKIQCAKTLILSLQQLFNEMIQENGYNFDRSSSTFSGIKELARRFALTFGLDQLKTREAIAMLHKDGIEFAFKEPNPQGESHPPLNLAFLDILSEFSSKLLRQDKRTVYVYLEKFMTFQMSLRREDVWLPLMSYRNSLLAGGDDDTMSVISGISSRGSTVRSKKSKPSTGKRKVVEGMQLSLTEESSSSDSMWLSREQTLHTPVMMQTPQLTSTIMREPKRLRPEDSFMSVYPMQTEHHQTPLDYNRRGTSLMEDDEEPIVEDVMMSSEGRIEDLNEGMDFDTMDIDLPPSKNRRERTELKPDFFDPASIMDESVLGVSMF
